From the supplement of paper PMC3334620
Over roughly 33,000 sequences, “E-score (-0.5 to 0.5)” has its median near -8e-05; the highest 2% begin near 0.23. The list shows a part of the results.

Each sequence was assayed against T1, Nrg2 (UniProt P38082) (assay: PBM E-score (8-mer binding enrichment) (E-score (-0.5 to 0.5)); higher = stronger / more preferred TF binding). Settings: protein concentration: 100 nM; construct: GST-full length.
T1 sequence: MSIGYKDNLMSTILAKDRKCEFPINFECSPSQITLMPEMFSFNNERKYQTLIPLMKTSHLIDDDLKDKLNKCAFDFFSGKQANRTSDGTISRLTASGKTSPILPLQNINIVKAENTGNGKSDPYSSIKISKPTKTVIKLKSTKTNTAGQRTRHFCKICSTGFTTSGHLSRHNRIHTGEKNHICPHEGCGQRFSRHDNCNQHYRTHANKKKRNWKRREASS
How it was run: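 E-scores (a modified Wilcoxon-Mann-Whitney statistic) were assigned by the Universal PBM Analysis Suite to every ungapped eight-base word pooled with its reverse complement. The input came from universal all-10-mer Agilent arrays made double-stranded by primer extension and probed with GST-tagged yeast transcription factors at about 100-200 nM. Fluorescent anti-GST detected bound protein, and masliner normalised the scans.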

Row | Sequence | PBM E-score
1 | ATTGCCAA | -0.0427
2 | ATATGATC | 0.214
3 | AGAGCGGC | -0.012
4 | GCCAAAGA | -0.156
5 | GTGAAGCA | 0.00894
6 | GAATGCGC | 0.0827
7 | CGGTGTGA | 0.0562
8 | CCTGGGGA | -0.243
9 | ATGACTAA | -0.0813
10 | ACCGATGC | -0.0652
11 | CAAGAGCG | 0.0285
12 | GTAGACAC | -0.0116
13 | CAGGTAAA | 0.179
14 | CACACCGA | -0.0459
15 | ACATAACT | 0.117
16 | GGTTGACA | 0.0273
17 | AGCTTCAG | -0.128
18 | AAGAAAGG | 0.0546
19 | AGAAAATG | 0.0493
20 | GCTGAGCC | -0.0372
21 | CATGCGAG | 0.057
22 | ATCGAAGC | -0.107
23 | ACAGGGAT | 0.295
24 | ACCAACCA | 0.0334
25 | CGTCGTTC | 0.185

Row | Sequence | PBM E-score
26 | CAGGGACC | 0.4
27 | CCATGGGA | 0.0949
28 | AGCCCCAT | -0.0124
29 | CTTCCGTC | -0.0306
30 | CCTGGGTA | -0.159
31 | CATGAGAA | 0.136
32 | AAAACCCT | 0.209
33 | CCATTCAC | 0.0939
34 | CCGGGGCA | -0.0852
35 | GGGCCGAC | -0.0745
36 | CCCATTAC | 0.0297
37 | GCTGCTAC | -0.154
38 | GATACTGA | 0.0997
39 | CGTTTACA | -0.103
40 | CCATCTAG | 0.0291
41 | CTTGCTAA | -0.09
42 | ACTCGGCG | 0.00035
43 | ACCAAGAT | 0.138
44 | AGTGAAGG | -0.00781
45 | ACCGTATG | -0.0515
46 | CCACCAAA | -0.023
47 | AAGATTCC | 0.105
48 | GCTGAACC | 0.0119
49 | ACACCCGA | 0.0989
50 | GGAGTACC | -0.0929

Row | Sequence | PBM E-score
51 | ATGAAATC | 0.0833
52 | CGTGTATC | 0.00614
53 | CCAATGAA | -0.132
54 | CCCCCTAC | -0.339
55 | ATATAGTC | 0.196
56 | ACCACTGA | -0.12
57 | GGAACCGA | -0.0524
58 | CATTGACA | -0.155
59 | AGTATATG | 0.129
60 | AGGGCGTG | -0.203
61 | CGCCCGGC | -0.191
62 | CCCTCGTA | 0.154
63 | AACGCCAT | -0.0303
64 | CCAACGCG | 0.0766
65 | ATGACCAT | 0.0513
66 | AACGACGT | -0.054
67 | CTGCATGA | -0.167
68 | CACGAAGG | -0.00731
69 | CCCCTAAC | 0.0474
70 | CCCGGCGA | -0.0244
71 | CATCACAG | -0.0858
72 | CTATCTTC | 0.0958
73 | ACGCGAGA | 0.112
74 | GCAAACGA | 0.0657
75 | AGGACTAT | -0.0895

Row | Sequence | PBM E-score
76 | GAAGCGGA | -0.00883
77 | GAGCAAAC | 0.0831
78 | AAGTTTTA | 0.121
79 | GTTCGAAA | 0.0894
80 | ATAGGTTC | -0.00633
81 | AACCCCCT | -0.311
82 | TACAGTAA | -0.0867
83 | CTTATGAA | -0.0316
84 | CGTTATCA | -0.00641
85 | ATGACGGG | 0.12
86 | ATTACATG | 0.115
87 | CATGGAAG | 0.00638
88 | AAAGTAGC | 0.00721
89 | AAGCAATC | 0.0696
90 | ACTCTGTA | -0.096
91 | GTGGGGTA | 0.164
92 | AGAACTCC | -0.0878
93 | GAGGTTGC | -0.133
94 | AACATGAA | 0.0393
95 | TGTTCGAA | -0.00763
96 | ACTCGTTG | -0.109
97 | GAAATCGA | 0.166
98 | CCCTTCGA | -0.0402
99 | AGCTTCAA | 0.0248
100 | TAGTGTCA | 0.00857

Row | Sequence | PBM E-score
101 | AGAATCCT | -0.0503
102 | ATTCACCC | 0.112
103 | ATTTTAAC | -0.00903
104 | AAGACAGC | 0.0123
105 | TCCCGGAA | 0.0559
106 | GGAATTAC | 0.0713
107 | CGAGAGAA | -0.00082
108 | CGAGGCAC | -0.124
109 | CCGTAATA | 0.12
110 | CTCGTTTC | 0.0803
111 | TACGTTGA | 0.0321
112 | AATAGGAT | 0.218
113 | CGCTCTCA | -0.0507
114 | ACTCCGTG | -0.167
115 | ACCTTGTC | -0.194
116 | AGAGTTCC | -0.0256
117 | AGAGTCCG | -0.118
118 | GATATACA | 0.0803
119 | ATTACGCA | 0.171
120 | CTATGCCC | -0.0683
121 | AAACTGGG | -0.0257
122 | GACCATCC | 0.0166
123 | ATTCCATG | 0.183
124 | AAACCTCT | 0.0073
125 | CGAGGTCC | 0.0854

Reprinted at random: 6 records from the list, in no set order.
Row | Sequence | PBM E-score
18 | AAGAAAGG | 0.0546
118 | GATATACA | 0.0803
2 | ATATGATC | 0.214
37 | GCTGCTAC | -0.154
3 | AGAGCGGC | -0.012
109 | CCGTAATA | 0.12

Next part

Row | Sequence | PBM E-score
126 | GGGTGATA | 0.00288
127 | CTCCTAAG | -0.205
128 | CACAGACA | 0.118
129 | CCGATAAA | -0.086
130 | ATGCATTG | 0.0223
131 | AGGGGCCG | -0.225
132 | CAGATGGA | 0.187
133 | CGCGATAA | 0.0712
134 | TGACAGAA | 0.0851
135 | ATGAAAAC | 0.203
136 | AACAGGTC | -0.119
137 | ACTACACA | 0.221
138 | ATGTCTGC | 0.0614
139 | GCACTATA | 0.125
140 | AACGACCC | 0.111
141 | CCCGGAGC | -0.126
142 | GTCCATTA | 0.0517
143 | TCGCGTCA | 0.0203
144 | AAGCCACA | -0.101
145 | CCCACTCC | -0.13
146 | CATCTCCG | 0.193
147 | GCACACCA | -0.145
148 | ATTCTTCC | -0.0599
149 | CCGCCATA | 0.133
150 | ACAAGTAC | -1e-05

Reformatted as a markdown table: part of the list above.

| Row | Sequence | PBM E-score |
| --- | --- | --- |
| 21 | CATGCGAG | 0.057 |
| 107 | CGAGAGAA | -0.00082 |

Later entries

Row | Sequence | PBM E-score
151 | CACAGCAC | 0.0106
152 | AGGACAAG | 0.0508
153 | AATTTTCG | -0.0577
154 | GGCTACAC | -0.31
155 | GGATCAAA | 0.136
156 | AGGGAGAG | -0.171
157 | GACAGGTA | -0.11
158 | GGATCGCC | 0.0218
159 | AAAGACGA | -0.12
160 | GAAGGGAC | 0.159
161 | ATGTTTCA | -0.078
162 | CCGGGACC | 0.103
163 | AAGACCAT | -0.0952
164 | GAGATCAA | 0.155
165 | CTCACAAG | 0.0181
166 | CGTATATA | 0.0216
167 | CCCCGAAG | 0.0536
168 | CCTATAGA | -0.0706
169 | AAGCTGAT | 0.184
170 | AGTTCTCC | -0.0976
171 | ATCCATGG | 0.0164
172 | GCTTGTAA | -0.112
